Drawing on patent publication US20070003923A1 (Scripps Research, published 2007), this text covers binding for 1 molecule.

The chains behind the UniProt entries cited, without tags or fusion partners. Residues count along the entry.
UniProt P78310, residues 20-365: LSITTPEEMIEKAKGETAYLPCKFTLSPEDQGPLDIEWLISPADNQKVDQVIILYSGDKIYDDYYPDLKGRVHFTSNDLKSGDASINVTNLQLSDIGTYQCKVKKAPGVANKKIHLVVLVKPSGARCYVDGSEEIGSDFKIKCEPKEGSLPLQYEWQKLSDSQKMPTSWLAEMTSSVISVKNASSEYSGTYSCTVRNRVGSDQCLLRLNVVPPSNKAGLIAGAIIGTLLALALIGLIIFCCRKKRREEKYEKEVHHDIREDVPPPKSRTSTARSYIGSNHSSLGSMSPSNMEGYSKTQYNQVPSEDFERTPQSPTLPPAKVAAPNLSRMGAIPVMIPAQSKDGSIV

These are yes or no findings as the source states them, for the method shown. Some entries that bind do so weakly or less than the wild type.

The target of this experiment is Coxsackie-Adenovirus Receptor (CAR) on A549 lung carcinoma cells (human) (UniProt P78310). Kind of experiment: recombinant Ad5 knob (100 µg/ml) as competitor of virus attachment to A549 cells.

B1: recombinant Ad5 knob (protein)
chain: GAITVGNKNNDKLTLWTTPAPSPNCRLNAEKDAKLTLVLTKCGSQILATVSVLAVKGSLAPISGTVQSAHLIIRFDENGVLLNNSFLDPEYWNFRNGDLTEGTAYTNAVGFMPNLSAYPKSHGKTAKSNIVSQVYLNGDKTKPVTLTITLNGTQETGDTTPSAYSMSFSWDWSGHNYINEIFATSSYTFSYIAQE
With B1, the binding entry is “binds”.
